Values from PubChem BioAssay AID1259254 (NCATS, 2017).

- Assay: 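Genome-wide screen for genes that prevent DNA re-replication in cancer cells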 (primary screen)
- Cell system: human HCT116 colorectal cancer cells
- Reagent: single siRNA against human genes
- Duration: 3 days
- Measurement: 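Nuclei stained with Hoechst and imaged; cell-cycle phase assigned by DNA content; G2 share scaled per plate, non-targeting siRNA 0%, GMNN siRNA 100%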
- Direction: G2 robust z-score: higher = more G2 cells, more excess DNA replication
- Call rule: 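Active siRNAs have a G2 robust z of 5 or more median absolute deviations over the median, which in these data means about 38% or higher of GMNN control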
The deposit covers about 59,000 reagents; below is a part drawn at random. About 1,550 of all reagents (2.6%) count as active. 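G2 share is only a proxy for re-replication; each gene was hit by three separate siRNAs, and active genes were retested.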 Entries without a mark were called inactive. The numbers tell different reagents against one gene apart. Further read-outs or replicates are left out here. Not stated in the record: the amount of reagent.

With knock-down of BIRC2 #1, the record shows G2 robust z-score -0.39. BIRC2 #2 scored G2 robust z-score 1.35. BIRC2 #3 gave G2 robust z-score 4.18. After knock-down of TAB3 #1, the screen gave G2 robust z-score -0.199. TAB3 #2 showed G2 robust z-score -0.364. TAB3 #3 scored G2 robust z-score 0.038.

GAD2 #1 gave G2 robust z-score -0.493. GAD2 #2 scored G2 robust z-score -0.00378. Against GAD2 #3, the values are G2 robust z-score -0.197. After knock-down of KRT6B #1 the results were G2 robust z-score -0.93. Knock-down of KRT6B #2 gave: G2 robust z-score -1.04. Silencing of KRT6B #3 gave: G2 robust z-score -0.286.

Silencing of CLC #1 came out at: G2 robust z-score -0.957. Depletion of CLC #2 resulted in: G2 robust z-score 0.565. CLC #3 showed G2 robust z-score -0.931. RPL15P11 #1 gave G2 robust z-score 5.39 (active). RPL15P11 #2 scored G2 robust z-score -0.548. Against RPL15P11 #3 the deposit lists G2 robust z-score 2.83.

After knock-down of THA1P #1, the screen gave G2 robust z-score 3.15. Silencing of THA1P #2 resulted in: G2 robust z-score -0.823. With knock-down of THA1P #3, the record shows G2 robust z-score 1.16. Against MC1R #1 the deposit lists G2 robust z-score 2.32. Silencing of MC1R #2 came out at: G2 robust z-score -0.616. Against MC1R #3, the values are G2 robust z-score 1.79.

Silencing of GSTM1 #1 came out at: G2 robust z-score -0.793. After knock-down of GSTM1 #2, the screen gave G2 robust z-score 0.8. With knock-down of GSTM1 #3 the results were G2 robust z-score 2.5. AFF3 #1 gave G2 robust z-score -1.11. For AFF3 #2, the values are G2 robust z-score 0.787. After knock-down of AFF3 #3, the record shows G2 robust z-score -0.00629.

Part of the list above, set out differently:
{"target": "THA1P", "reagent no.": 3, "G2 robust z-score": 1.16}
{"target": "MC1R", "reagent no.": 1, "G2 robust z-score": 2.32}
{"target": "MC1R", "reagent no.": 2, "G2 robust z-score": -0.616}
{"target": "MC1R", "reagent no.": 3, "G2 robust z-score": 1.79}
